The list shows a part of the results. Repeats are few or missing, and single values can be far off.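 Labelled rat cortical synaptosomes were engulfed by primary human fetal astrocytes. Engulfment equaled a red/green ratio, corrected for calcein live-cell signal and normalized to the plate median. Compounds were toxic when calcein dropped over 30%, and reduced phagocytosis when below 70% of the median above 5 µM.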
Legend:
Human fetal astrocytes [1] = assay: loss of total cells relative to no-compound high-control median (toxicity); higher = more toxic (fewer cells); settings: 24 h
Human fetal astrocytes [2] = assay: synaptosome phagocytosis (pHrodo/calcein intensity ratio) relative to plate median of data wells; higher = more phagocytosis; settings: 24 h

SMILES | loss of total cells (Human fetal astrocytes [1]; 1.39 µM) [%] | loss of total cells (Human fetal astrocytes [1]; 2.78 µM) [%] | loss of total cells (Human fetal astrocytes [1]; 5.56 µM) [%] | loss of total cells (Human fetal astrocytes [1]; 11.11 µM) [%] | loss of total cells (Human fetal astrocytes [1]; 22.22 µM) [%] | synaptosome phagocytosis (Human fetal astrocytes [2]; 1.39 µM) [%] | synaptosome phagocytosis (Human fetal astrocytes [2]; 2.78 µM) [%] | synaptosome phagocytosis (Human fetal astrocytes [2]; 5.56 µM) [%] | synaptosome phagocytosis (Human fetal astrocytes [2]; 11.11 µM) [%] | synaptosome phagocytosis (Human fetal astrocytes [2]; 22.22 µM) [%]
C[n+]1cccc(C(=O)[O-])c1 | -9.8 | -1.1 | -5.1 | 0 | 14.8 | 119 | 86.6 | 54.1 | 82.4 | 86.7
CCCCCCCCCCCCCCCCCCOCC(O)CO (stereo not given) | -31.1 | 6.9 | -9.5 | 5.4 | -7.4 | 96.3 | 117 | 91.7 | 160 | 111
CC1CCC2(OC1)OC1CC3C4CCC5C[C@@H](O)CCC5(C)C4=CCC3(C)C1[C@@H]2C (stereo partly drawn) [3beta-HYDROXYISOALLOSPIROST-9(11)-ENE] | -21.4 | -4.7 | 39.7 | 11 | -26.3 | 90.2 | 83.9 | 162 | 104 | 69.1
COc1cc2c3cc1Oc1cc(ccc1O)C[C@@H]1c4c(cc(OC)c(O)c4Oc4ccc(cc4)C[C@@H]3N(C)CC2)CC[N+]1(C)C | 25 | -1.3 | -7.6 | 34.2 | -7.8 | 100 | 72.7 | 57 | 131 | 97.3
CC(=O)c1ccc(S(=O)(=O)NC(=O)NC2CCCCC2)cc1 [Acetohexamide] | 20.2 | -22.2 | 14.3 | -1.6 | 2.2 | 149 | 89.4 | 137 | 94.2 | 120
CC1=C(CCC(=O)O)c2cc3nc(cc4[nH]c(cc5[nH]c(cc1n2)c(C)c5C(C)O)c(C)c4C(C)O)C(C)=C3CCC(=O)O (stereo not given) | -0.4 | 14 | 25.2 | 13.5 | 9.3 | 149 | 125 | 128 | 102 | 104
Cc1cccc(N(C)C(=S)Oc2ccc3ccccc3c2)c1 | -23.2 | -7.6 | -8.1 | -10.2 | 33.4 | 114 | 104 | 96.8 | 111 | 75.1
COc1ccc(-c2cc(=O)c3c(O)c(OC)c(OC)c(OC)c3o2)cc1OC | -18 | -1.1 | 0 | 6.8 | 4.4 | 94 | 96.4 | 64 | 87.3 | 69.4
CC1CC(OC(=O)c2ccccc2O)CC(C)(C)C1 (stereo not given) | -10.8 | -3.4 | -13.5 | -35.2 | 6.8 | 121 | 103 | 85.7 | 135 | 118
COc1ccc(-c2cc(=O)c3c(OC(C)=O)cc(OC(C)=O)cc3o2)cc1 | 25.7 | -0.7 | -12.2 | 41.9 | 10 | 116 | 75.9 | 78.4 | 132 | 130
C[C@]12CCC(=O)C=C1C=C[C@@H]1[C@@H]2CC[C@@]2(C)[C@H]1CC[C@@]21CCC(=O)O1 | -0.8 | -5.2 | 6.9 | -10.2 | 10.8 | 110 | 99.3 | 91.5 | 99.4 | 84.9
Oc1ccc([C@H]2Oc3cc(O)cc(O)c3C[C@H]2O)cc1 | -28.6 | 10.6 | -5.3 | 7.7 | 4.8 | 196 | 184 | 120 | 114 | 90.3
OCc1c[nH]c2ccccc12 | -9.8 | -7.6 | 2.2 | 16.2 | 0.7 | 132 | 76.5 | 125 | 77.3 | 99.4
CC(=O)O[C@@H]1C[C@H]2C(C)(C)[C@@H](O)CC[C@]2(C)[C@H]2CC[C@@]3(C)[C@H](c4ccoc4)OC(=O)[C@H]4O[C@]43[C@@]21C [beta-DIHYDROGEDUNOL] | -5.4 | 0 | -13.7 | 0.6 | 10.7 | 82.7 | 109 | 125 | 117 | 118
C[C@H]1C(=O)CC[C@@H]2[C@]1(C)CC[C@H]1[C@@]2(C)CC[C@@]2(C)[C@@H]3CC(C)(C)CC[C@]3(C)CC[C@]12C | -6.9 | 8 | -11.5 | 20.6 | 8.5 | 138 | 117 | 114 | 111 | 102
COc1ccc([C@@H]2CC(=O)c3c(O)cc(O)cc3O2)cc1O | -12.3 | -4.7 | -5.1 | 2.7 | 10.4 | 85.4 | 86.1 | 105 | 110 | 104
CC(=O)Oc1ccc2c(c1C(C)C)CCC1C(C)(C)CCC[C@]21C (stereo not given in full) | -16.3 | -11.3 | 34.4 | 18.1 | 3.3 | 102 | 106 | 154 | 123 | 98.9
C[C@]12CC[C@@H](O)C[C@H]1CCc1ccccc12 [3alpha-HYDROXY-4,4-BISNOR-8,11,13-PODOCARPATRIENE] | 10.5 | -3.3 | -13 | 38.7 | 4.1 | 97.5 | 81.3 | 72.6 | 91.7 | 64.2
N[C@@H](Cc1c[nH]c2ccccc12)C(=O)O | 13.9 | 1.7 | -12.5 | -14.7 | 16.1 | 90 | 82 | 103 | 114 | 105
CC(=O)N(c1onc(C)c1C)S(=O)(=O)c1ccc(N)cc1 | -18.5 | -23 | 10.6 | 23.3 | -1.6 | 131 | 99.4 | 108 | 133 | 92.9
COc1cc2c(cc1OC)[C@@H]1C(=O)c3ccc4c(c3O[C@@H]1CO2)C=CC(C)(C)O4 | 32.2 | 27.9 | 18.3 | 46.5 | 44.8 | 71.2 | 67 | 65.1 | 63 | 59.9

SMILES | loss of total cells (Human fetal astrocytes [1]; 1.39 µM) [%] | loss of total cells (Human fetal astrocytes [1]; 2.78 µM) [%] | loss of total cells (Human fetal astrocytes [1]; 5.56 µM) [%] | loss of total cells (Human fetal astrocytes [1]; 11.11 µM) [%] | loss of total cells (Human fetal astrocytes [1]; 22.22 µM) [%] | synaptosome phagocytosis (Human fetal astrocytes [2]; 1.39 µM) [%] | synaptosome phagocytosis (Human fetal astrocytes [2]; 2.78 µM) [%] | synaptosome phagocytosis (Human fetal astrocytes [2]; 5.56 µM) [%] | synaptosome phagocytosis (Human fetal astrocytes [2]; 11.11 µM) [%] | synaptosome phagocytosis (Human fetal astrocytes [2]; 22.22 µM) [%]
CC(C)(c1ccc(O)cc1)c1ccc(O)cc1 | 12.6 | -9.7 | 2.9 | 17.2 | 18.2 | 71.5 | 66.9 | 93 | 103 | 124
O=C(O[C@@H]1Cc2c(O)cc(O)cc2O[C@@H]1c1ccc(O)c(O)c1)c1cc(O)c(O)c(O)c1 | 0.4 | 0 | 37.4 | 43.9 | 30.7 | 120 | 120 | 141 | 93.7 | 75.4
O=c1cc(-c2ccc(O)cc2)oc2ccc(O)cc12 | -19.7 | -5.4 | -1.5 | 0 | 4.4 | 122 | 85.7 | 123 | 74.2 | 104
C[C@]12CC[C@@H]3c4ccc(OS(=O)(=O)O)cc4CC[C@H]3[C@@H]1CCC2=O | -45.2 | -27 | -4.3 | 0.3 | 14.6 | 97.3 | 102 | 127 | 106 | 112
Oc1ncnc2[nH]ncc12 | 2.5 | -15.5 | 8.1 | -7.8 | 9.6 | 81.9 | 115 | 99.7 | 108 | 112
CC(C)Cn1c(=O)n(C)c(=O)c2[nH]cnc21 [3-Isobutyl-1-methylxanthine] | -21.4 | -0.7 | 23.7 | 34.2 | -5.6 | 82.7 | 116 | 126 | 111 | 91.3
CN1CCCN=C1/C=C/c1cccc(O)c1 | -6.2 | -3.3 | 27.5 | 1.9 | 13 | 109 | 119 | 123 | 90.1 | 124
O=C(Nc1ccccc1)c1ccccc1O | -10 | -25.9 | -9.3 | -32.8 | 4.5 | 110 | 101 | 107 | 122 | 107
CC(=O)CC(=O)CCC(=O)O | 10.5 | 12.6 | 2.9 | -14.6 | 15.9 | 122 | 138 | 108 | 136 | 113
Oc1c(I)cc(I)c2cccnc12 | 15.7 | -18 | -2.1 | 22.2 | 16.1 | 129 | 114 | 82.5 | 43.9 | 86.8
CC(=O)C1CCC2C3CC=C4CC(OS(=O)(=O)O)CCC4(C)C3CCC12C (stereo not given) | -9.8 | 4 | -5.9 | 10.8 | 12.6 | 121 | 83.3 | 139 | 134 | 106
CN(C(=O)CN(CCO)CC(=O)N(C)C(C)(C)Cc1ccccc1)C(C)(C)Cc1ccccc1 | -6.5 | -30.2 | -8.7 | 43 | 18.4 | 137 | 116 | 122 | 144 | 112
CC12CCC(CC1=O)C2(C)C (stereo not given) | -14.1 | 0.3 | -8.1 | -6.3 | -6.8 | 111 | 102 | 103 | 151 | 95.5
COc1ccc(C(=O)CC(=O)c2ccc(C(C)(C)C)cc2)cc1 | -0.8 | -31.7 | 2.5 | 1 | 9.7 | 109 | 120 | 110 | 91.3 | 114
NC(=O)C1(N2CCCCC2)CCN(CCCC(=O)c2ccc(F)cc2)CC1 | -41.1 | 19 | -10.6 | 47.5 | -0.9 | 112 | 104 | 90.9 | 154 | 114
O=C(N/N=C/c1ccc([N+](=O)[O-])o1)c1ccc(O)cc1 | 17 | 17.7 | 14.5 | 22.2 | 25 | 76 | 95.5 | 68.9 | 86.4 | 102
CC(=O)Oc1cccc2c1C(=O)c1c(OC(C)=O)cc(C(=O)O)cc1C2=O | 10.5 | 1.8 | 23.2 | 6.3 | 2.3 | 118 | 119 | 131 | 104 | 95.6
COc1ccc(-c2coc3c(O)c(OC)ccc3c2=O)cc1 | 23.6 | 0.7 | -12.2 | 37.4 | 7 | 152 | 90.7 | 105 | 120 | 96.7
O=C(Cn1ccnc1[N+](=O)[O-])NCCO | -35.5 | -40.5 | -20.5 | 22 | 3.4 | 106 | 104 | 88.4 | 88.5 | 121
COC(=O)Nc1nc2cc(C(=O)c3ccccc3)ccc2[nH]1 | -28.2 | 0.9 | 4.5 | 7.8 | 9.6 | 93 | 118 | 139 | 97.9 | 121
C[C@@H]1O[C@@H](O[C@H]2[C@H](O[C@H]3CC[C@@]4(C)[C@@H](CC[C@]5(C)[C@@H]4CC=C4[C@@H]6CC(C)(C)CC[C@]6(C(=O)O[C@@H]6O[C@H](CO[C@@H]7O[C@H](CO)[C@@H](O[C@@H]8O[C@@H](C)[C@H](O)[C@@H](O)[C@H]8O)[C@H](O)[C@H]7O)[C@@H](O)[C@H](O)[C@H]6O)CC[C@]45C)[C@]3(C)CO)OC[C@H](O)[C@@H]2O)[C@H](O)[C@H](O)[C@H]1O | -19.7 | -6.1 | -6.6 | 5.4 | -0.7 | 122 | 134 | 114 | 95.4 | 104

Molecules above containing a carbonyl joined to an NH by a bond outside any ring, in the order listed:
SMILES | loss of total cells (Human fetal astrocytes [1]; 1.39 µM) [%] | loss of total cells (Human fetal astrocytes [1]; 2.78 µM) [%] | loss of total cells (Human fetal astrocytes [1]; 5.56 µM) [%] | loss of total cells (Human fetal astrocytes [1]; 11.11 µM) [%] | loss of total cells (Human fetal astrocytes [1]; 22.22 µM) [%] | synaptosome phagocytosis (Human fetal astrocytes [2]; 1.39 µM) [%] | synaptosome phagocytosis (Human fetal astrocytes [2]; 2.78 µM) [%] | synaptosome phagocytosis (Human fetal astrocytes [2]; 5.56 µM) [%] | synaptosome phagocytosis (Human fetal astrocytes [2]; 11.11 µM) [%] | synaptosome phagocytosis (Human fetal astrocytes [2]; 22.22 µM) [%]
CC(=O)c1ccc(S(=O)(=O)NC(=O)NC2CCCCC2)cc1 [Acetohexamide] | 20.2 | -22.2 | 14.3 | -1.6 | 2.2 | 149 | 89.4 | 137 | 94.2 | 120
O=C(Nc1ccccc1)c1ccccc1O | -10 | -25.9 | -9.3 | -32.8 | 4.5 | 110 | 101 | 107 | 122 | 107
NC(=O)C1(N2CCCCC2)CCN(CCCC(=O)c2ccc(F)cc2)CC1 | -41.1 | 19 | -10.6 | 47.5 | -0.9 | 112 | 104 | 90.9 | 154 | 114
O=C(N/N=C/c1ccc([N+](=O)[O-])o1)c1ccc(O)cc1 | 17 | 17.7 | 14.5 | 22.2 | 25 | 76 | 95.5 | 68.9 | 86.4 | 102
O=C(Cn1ccnc1[N+](=O)[O-])NCCO | -35.5 | -40.5 | -20.5 | 22 | 3.4 | 106 | 104 | 88.4 | 88.5 | 121
COC(=O)Nc1nc2cc(C(=O)c3ccccc3)ccc2[nH]1 | -28.2 | 0.9 | 4.5 | 7.8 | 9.6 | 93 | 118 | 139 | 97.9 | 121

From the supplement of paper PMC10689618
